# Source: PMC11063629
# Protein sequences, listed by entry. Tags and fused reporters are not part of them.
# UniProt Q9BUL8: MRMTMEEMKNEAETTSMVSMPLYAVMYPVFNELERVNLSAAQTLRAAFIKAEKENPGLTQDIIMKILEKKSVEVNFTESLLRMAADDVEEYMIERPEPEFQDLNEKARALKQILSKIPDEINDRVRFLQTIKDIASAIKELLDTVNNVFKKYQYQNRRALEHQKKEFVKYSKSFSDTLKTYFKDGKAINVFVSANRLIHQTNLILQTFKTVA
# UniProt O00506: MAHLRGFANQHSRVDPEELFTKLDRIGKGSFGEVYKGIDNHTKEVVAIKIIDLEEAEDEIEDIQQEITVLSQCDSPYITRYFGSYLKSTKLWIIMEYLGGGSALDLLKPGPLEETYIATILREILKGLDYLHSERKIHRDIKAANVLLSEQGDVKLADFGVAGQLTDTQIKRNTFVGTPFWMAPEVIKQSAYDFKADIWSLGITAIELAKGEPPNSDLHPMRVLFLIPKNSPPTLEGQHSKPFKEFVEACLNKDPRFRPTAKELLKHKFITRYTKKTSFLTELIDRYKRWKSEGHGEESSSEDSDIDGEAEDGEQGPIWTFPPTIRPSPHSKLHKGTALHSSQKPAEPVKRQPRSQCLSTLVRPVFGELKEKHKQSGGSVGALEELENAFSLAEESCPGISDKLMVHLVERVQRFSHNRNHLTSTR
# UniProt Q9P289: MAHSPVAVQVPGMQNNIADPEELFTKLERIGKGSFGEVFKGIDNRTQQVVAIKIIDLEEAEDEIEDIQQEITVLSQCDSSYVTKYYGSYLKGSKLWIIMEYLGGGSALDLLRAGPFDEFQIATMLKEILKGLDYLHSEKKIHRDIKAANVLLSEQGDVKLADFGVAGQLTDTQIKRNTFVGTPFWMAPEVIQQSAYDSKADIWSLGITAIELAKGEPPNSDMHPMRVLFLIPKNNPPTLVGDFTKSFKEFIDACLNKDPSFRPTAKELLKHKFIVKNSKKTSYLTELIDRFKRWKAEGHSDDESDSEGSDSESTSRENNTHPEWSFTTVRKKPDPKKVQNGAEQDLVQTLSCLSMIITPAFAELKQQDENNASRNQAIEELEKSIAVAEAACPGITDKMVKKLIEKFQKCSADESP
# No constants are given. Whether binding was seen depends on the method and setting. In cells and extracts the contact can be indirect. Some results given as binding are weak or reduced against the parent protein; the word gives no strength. Tags and fused reporters may be left off the sequences shown.
# Molecular target: T1, C4orf19-V5 (human) (UniProt Q8IY42)
# T1 sequence: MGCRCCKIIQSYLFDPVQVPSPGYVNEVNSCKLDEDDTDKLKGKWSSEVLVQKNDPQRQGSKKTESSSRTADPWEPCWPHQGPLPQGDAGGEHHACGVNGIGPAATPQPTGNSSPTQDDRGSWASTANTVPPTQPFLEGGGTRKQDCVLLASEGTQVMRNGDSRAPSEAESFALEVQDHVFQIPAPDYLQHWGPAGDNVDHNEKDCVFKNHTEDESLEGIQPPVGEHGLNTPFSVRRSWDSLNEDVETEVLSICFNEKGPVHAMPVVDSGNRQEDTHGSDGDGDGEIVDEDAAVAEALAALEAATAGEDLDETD
# Experiment: co-IP; anti-V5 immunoprecipitation from lysates of MCF10A cells expressing C4orf19-V5 and 3×FLAG-tagged candidates; lysis buffer 50 mM HEPES, 150 mM NaCl, 1.5 mM MgCl2, 1 mM EGTA, 1% Triton X-100, 10% glycerol, pH 7.4; overnight at 4°C with protein-A or protein-G-sepharose; western blot
row,binding,Substance
1,binds,3×FLAG-PDCD10 (from UniProt Q9BUL8 1-212)
2,binds,3×FLAG-STK25 (from UniProt O00506 1-426) (enzyme)
3,binds,3×FLAG-STK26 (from UniProt Q9P289 1-416) (enzyme)
